According to US8889902B2, “Acetylsalicylic acid salts” (priority 2009, dated 2014):
At least one compound was matched to its structure with a doubt left.

Tested on: abdominal constrictions in writhing test model
Assay: Mouse writhing test (acetic acid i.p.)
Type: in vivo, mice
Settings: 300 mg/kg p.o. 30 min before acetic acid
Method: In investigating the analgesic, anti-inflammatory and antipyretic effects of MASA methods widely used in evaluation of NSAIDs were employed. Mongrel white laboratory mice and Wistar rats were used in experiments. Animals were kept in groups of 7-8 in adequate cages in climatized rooms at 22±1° C., relative humidity 60±5% and 12/12-hour light/darkness cycle with free access to feed and water.
Aqueous solutions of test substances were prepared ex tempore. In each experimental series a control group was used that received an identical volume of water p.o.
Nociceptive reaction was evaluated by chemical irritation method—writhing test (Charaborty A et al, Indian J of Pharmacology 2004; 36(3):148-150). Animals received i.p. 0.25 ml of 0.75% aqueous acetic acid solution: After the injection animals were placed separately in special boxes and observed for 10 minutes. The number of abdominal constrictions was registered. Analgesic activity was manifested by reduction of the number of abdominal constrictions in the 10 minutes period. Test substances were introduced 30 min before the irritating agent. The level of analgesia was expressed as analgesic index calculated as follows: A=(Cc−Ct)/Cc·100%, where A—Analgesic index Cc—number of contractions in control group, Ct—number of contractions in the test group.

In the case of `CC(=O)Oc1ccccc1C(=O)[O-].C[N+](C)(C)NCCC(=O)O` [MASA, 3-(trimethylammonioamino)propanoate Acetylsalicylic Acid Addition Salt], the “Animals with positive reaction/total number” value is reported as 5 animals of 8.
